Measured values published in US6620771B2, “Thiadiazole dimer additives and lubricating compositions containing the same” (R. T. Vanderbilt Company, Inc., priority 1999, dated 2003).

Assay: Timken Load Test (ASTM D-2509) of grease formulations containing the additive
Settings: tested at 50 lbs.; approximately 5 wt. % in Lithium-12 hydroxystearate grease

**Q.** For `Sc1nnc(SSc2nnc(S)s2)s1` [DMTD dimer (VI)], which “Timken OK Load (Pass or Fail) 50 lbs.” value is on record?
**A.** Fail
